Test: recovery of flavor from capsules: yeast alone versus yeast with matrix component (maltodextrin 18DE), ethanol extraction and GC-MS
Conditions: Yeast 1 or Yeast 2 without matrix component, FIG. 1

CC(=O)C(C)O (racemic) [(+−)-3-HYDROXY-2-BUTANONE]
absorption of flavor in yeast cell alone: not well absorbed

CC1OCCC1S (racemic) [(+−)-TETRAHYDRO-2-METHYL-3-FURANTHIOL]
absorption of flavor in yeast cell alone: not well absorbed

CC(=O)c1cnccn1 [1-(PYRAZINYL)-1-ETHANONE]
absorption of flavor in yeast cell alone: not well absorbed

CC(=O)Sc1ccoc1C [S-(2-METHYL-3-FURYL) ETHANETHIOATE]
absorption of flavor in yeast cell alone: not well absorbed

Reference: patent publication US20070122398A1, “Encapsulated hydrophilic compounds” (priority 2004, published 2007)
